According to patent US20050008751A1, “Fermented milk product” (Unilever Bestfoods, North America, priority 2001, published 2005):
Ends that are not written are not given here.

Test: Concentration of active peptides in fermented milk (standard addition flow injection MRM)
Conditions: typical measured concentration in fermented milk

**Q.** For DKIHPF, which Concentration is on record?
**A.** The Concentration was 1.8 mg/L.

**Q.** With KVLPVP [Lys-Val-Leu-Pro-Val-Pro] as the substance, how does the Concentration read?
**A.** Its Concentration is 0.1 mg/L.

**Q.** With KVLPVPQ [Lys-Val-Leu-Pro-Val-Pro-Gln] as the substance, how does the Concentration read?
**A.** The Concentration was 0.9 mg/L.
